Data reported in the supplement of paper PMC10849652.
The other results are listed elsewhere or left out.

Chains of the proteins cited; added tags and fusions are not shown. Lines headed by an entry give the natural chain unless they say otherwise; changes in a name come on top.
UniProt Q9H2X9: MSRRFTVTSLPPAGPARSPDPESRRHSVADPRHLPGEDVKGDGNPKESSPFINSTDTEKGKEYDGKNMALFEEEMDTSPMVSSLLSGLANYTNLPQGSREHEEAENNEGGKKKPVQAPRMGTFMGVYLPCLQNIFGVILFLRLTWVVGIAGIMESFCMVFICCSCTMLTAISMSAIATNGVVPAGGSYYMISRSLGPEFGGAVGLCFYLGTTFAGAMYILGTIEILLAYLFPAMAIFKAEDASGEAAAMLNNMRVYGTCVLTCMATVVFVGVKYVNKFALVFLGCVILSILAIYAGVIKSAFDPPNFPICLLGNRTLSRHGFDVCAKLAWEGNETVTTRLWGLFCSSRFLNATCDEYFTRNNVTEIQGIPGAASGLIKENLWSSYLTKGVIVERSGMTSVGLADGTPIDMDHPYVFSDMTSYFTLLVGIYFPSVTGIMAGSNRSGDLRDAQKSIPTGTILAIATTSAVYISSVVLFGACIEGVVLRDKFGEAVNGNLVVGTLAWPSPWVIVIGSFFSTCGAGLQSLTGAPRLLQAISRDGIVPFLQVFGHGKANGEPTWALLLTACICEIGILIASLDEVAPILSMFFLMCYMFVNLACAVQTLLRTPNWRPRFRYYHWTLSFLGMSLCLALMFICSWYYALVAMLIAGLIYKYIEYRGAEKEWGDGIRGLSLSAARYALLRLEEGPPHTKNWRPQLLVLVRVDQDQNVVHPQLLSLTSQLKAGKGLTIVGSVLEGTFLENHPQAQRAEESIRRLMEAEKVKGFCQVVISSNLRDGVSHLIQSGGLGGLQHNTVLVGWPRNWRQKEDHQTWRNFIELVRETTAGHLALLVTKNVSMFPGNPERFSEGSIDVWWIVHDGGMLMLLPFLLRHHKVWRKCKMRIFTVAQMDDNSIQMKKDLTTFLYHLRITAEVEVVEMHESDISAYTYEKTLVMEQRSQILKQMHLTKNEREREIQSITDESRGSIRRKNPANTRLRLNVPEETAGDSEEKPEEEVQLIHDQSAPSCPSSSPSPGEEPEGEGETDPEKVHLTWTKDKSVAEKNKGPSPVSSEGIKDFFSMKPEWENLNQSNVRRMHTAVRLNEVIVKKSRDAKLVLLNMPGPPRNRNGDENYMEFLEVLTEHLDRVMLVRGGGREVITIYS
UniProt P04920: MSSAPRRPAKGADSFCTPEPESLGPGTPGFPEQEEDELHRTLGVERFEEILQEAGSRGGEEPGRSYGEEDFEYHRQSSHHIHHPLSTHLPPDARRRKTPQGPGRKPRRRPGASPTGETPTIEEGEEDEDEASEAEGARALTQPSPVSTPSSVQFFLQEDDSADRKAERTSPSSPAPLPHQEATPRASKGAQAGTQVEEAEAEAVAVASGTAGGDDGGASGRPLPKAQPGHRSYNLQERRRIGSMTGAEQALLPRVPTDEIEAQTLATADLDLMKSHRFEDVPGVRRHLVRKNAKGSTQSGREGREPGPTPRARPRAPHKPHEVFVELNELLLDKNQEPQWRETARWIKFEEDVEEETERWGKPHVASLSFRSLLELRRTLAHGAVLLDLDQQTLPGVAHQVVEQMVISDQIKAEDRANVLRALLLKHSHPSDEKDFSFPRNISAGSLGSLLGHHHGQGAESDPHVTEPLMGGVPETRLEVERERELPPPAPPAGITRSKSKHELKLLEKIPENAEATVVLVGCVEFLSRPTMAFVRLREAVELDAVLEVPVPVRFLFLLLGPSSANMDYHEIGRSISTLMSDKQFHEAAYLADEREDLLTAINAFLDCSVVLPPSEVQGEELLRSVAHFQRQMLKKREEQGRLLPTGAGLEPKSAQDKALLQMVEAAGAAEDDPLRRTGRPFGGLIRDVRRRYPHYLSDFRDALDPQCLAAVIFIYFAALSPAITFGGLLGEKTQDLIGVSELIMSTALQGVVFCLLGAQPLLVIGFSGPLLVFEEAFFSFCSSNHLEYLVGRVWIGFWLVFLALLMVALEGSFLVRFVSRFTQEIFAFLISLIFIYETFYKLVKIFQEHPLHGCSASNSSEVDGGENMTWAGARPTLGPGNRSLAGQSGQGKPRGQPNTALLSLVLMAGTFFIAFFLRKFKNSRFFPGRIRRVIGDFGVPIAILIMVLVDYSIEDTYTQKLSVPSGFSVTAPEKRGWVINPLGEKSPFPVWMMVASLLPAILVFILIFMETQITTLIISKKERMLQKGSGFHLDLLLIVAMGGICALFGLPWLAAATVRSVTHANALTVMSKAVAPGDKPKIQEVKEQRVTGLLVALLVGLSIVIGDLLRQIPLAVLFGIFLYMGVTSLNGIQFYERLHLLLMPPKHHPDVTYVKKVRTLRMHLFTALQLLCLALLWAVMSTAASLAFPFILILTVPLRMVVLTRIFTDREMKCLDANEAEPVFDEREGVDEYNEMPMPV
UniProt P0CK96: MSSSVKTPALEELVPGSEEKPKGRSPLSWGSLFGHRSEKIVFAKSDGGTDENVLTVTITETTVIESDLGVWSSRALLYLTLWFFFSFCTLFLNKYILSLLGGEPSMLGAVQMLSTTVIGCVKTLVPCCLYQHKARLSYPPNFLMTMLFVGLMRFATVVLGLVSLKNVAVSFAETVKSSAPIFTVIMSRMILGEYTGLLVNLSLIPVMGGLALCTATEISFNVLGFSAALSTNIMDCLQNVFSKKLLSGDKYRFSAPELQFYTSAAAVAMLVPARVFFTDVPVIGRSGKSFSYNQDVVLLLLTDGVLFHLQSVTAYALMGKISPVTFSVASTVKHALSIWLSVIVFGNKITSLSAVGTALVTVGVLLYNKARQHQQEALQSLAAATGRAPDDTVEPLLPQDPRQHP
UniProt Q9H1N7: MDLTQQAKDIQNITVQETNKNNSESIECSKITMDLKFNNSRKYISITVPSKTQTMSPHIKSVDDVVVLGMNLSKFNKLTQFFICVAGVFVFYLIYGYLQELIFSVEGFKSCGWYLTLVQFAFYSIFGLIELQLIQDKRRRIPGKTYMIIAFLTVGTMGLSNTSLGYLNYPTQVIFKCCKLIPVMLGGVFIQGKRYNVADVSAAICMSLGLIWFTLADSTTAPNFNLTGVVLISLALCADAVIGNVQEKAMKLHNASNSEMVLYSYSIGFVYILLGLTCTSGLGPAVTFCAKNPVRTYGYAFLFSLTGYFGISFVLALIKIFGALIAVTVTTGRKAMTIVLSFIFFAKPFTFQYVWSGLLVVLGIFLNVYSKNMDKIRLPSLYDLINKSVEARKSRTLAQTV
UniProt Q6NT16: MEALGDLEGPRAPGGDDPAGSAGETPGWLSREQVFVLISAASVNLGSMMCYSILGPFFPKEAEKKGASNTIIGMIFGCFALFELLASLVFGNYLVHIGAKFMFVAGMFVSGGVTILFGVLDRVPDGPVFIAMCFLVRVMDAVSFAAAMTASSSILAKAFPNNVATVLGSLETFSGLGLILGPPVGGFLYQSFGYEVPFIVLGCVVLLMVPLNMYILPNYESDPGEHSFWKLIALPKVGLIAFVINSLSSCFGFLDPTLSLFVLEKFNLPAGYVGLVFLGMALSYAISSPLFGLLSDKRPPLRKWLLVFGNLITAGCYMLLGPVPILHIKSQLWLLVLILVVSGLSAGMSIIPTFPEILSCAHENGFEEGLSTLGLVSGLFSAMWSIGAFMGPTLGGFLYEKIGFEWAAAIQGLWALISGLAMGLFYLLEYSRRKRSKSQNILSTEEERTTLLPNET
UniProt Q8NEW0: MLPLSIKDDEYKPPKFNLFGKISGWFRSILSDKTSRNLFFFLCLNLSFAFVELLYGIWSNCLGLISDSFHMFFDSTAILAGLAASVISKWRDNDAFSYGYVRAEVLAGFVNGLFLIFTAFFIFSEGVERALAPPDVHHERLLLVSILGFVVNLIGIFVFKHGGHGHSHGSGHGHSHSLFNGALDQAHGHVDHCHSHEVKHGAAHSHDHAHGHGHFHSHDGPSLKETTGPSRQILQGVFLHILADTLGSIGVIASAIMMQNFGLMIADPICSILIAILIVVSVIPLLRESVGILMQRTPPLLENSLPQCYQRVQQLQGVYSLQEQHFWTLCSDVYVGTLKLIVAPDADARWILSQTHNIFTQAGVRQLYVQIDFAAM
UniProt Q9Y2D2: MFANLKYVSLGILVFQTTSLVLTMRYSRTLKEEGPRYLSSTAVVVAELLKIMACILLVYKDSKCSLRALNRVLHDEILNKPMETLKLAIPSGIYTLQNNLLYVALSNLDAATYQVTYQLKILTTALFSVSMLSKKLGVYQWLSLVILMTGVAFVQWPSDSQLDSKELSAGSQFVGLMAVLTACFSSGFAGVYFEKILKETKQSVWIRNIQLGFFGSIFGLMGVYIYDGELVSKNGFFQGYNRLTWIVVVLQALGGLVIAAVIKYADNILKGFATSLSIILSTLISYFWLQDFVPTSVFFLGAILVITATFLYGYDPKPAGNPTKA
UniProt Q8N1S5: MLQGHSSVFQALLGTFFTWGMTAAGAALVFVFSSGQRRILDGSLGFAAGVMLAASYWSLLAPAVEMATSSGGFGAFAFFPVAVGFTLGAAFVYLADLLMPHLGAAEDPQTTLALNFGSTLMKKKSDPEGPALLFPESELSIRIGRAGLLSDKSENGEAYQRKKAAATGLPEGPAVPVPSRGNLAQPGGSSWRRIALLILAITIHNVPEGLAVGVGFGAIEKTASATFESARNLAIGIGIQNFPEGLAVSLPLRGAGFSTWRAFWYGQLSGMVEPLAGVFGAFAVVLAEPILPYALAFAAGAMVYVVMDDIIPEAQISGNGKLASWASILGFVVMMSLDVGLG
UniProt Q9NVC3: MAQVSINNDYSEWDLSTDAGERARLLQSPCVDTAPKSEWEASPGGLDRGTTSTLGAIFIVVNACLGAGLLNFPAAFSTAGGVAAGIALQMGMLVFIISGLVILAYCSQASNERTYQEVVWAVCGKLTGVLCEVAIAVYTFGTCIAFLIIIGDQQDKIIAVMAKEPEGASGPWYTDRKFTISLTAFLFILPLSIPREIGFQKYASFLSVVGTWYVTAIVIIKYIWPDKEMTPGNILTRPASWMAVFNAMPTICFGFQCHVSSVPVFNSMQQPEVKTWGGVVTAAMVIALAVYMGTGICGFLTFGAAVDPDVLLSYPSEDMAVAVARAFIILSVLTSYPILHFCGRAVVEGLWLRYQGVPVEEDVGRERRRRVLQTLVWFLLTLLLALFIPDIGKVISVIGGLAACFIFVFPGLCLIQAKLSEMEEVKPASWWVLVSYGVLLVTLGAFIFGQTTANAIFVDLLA
UniProt Q6P1K1: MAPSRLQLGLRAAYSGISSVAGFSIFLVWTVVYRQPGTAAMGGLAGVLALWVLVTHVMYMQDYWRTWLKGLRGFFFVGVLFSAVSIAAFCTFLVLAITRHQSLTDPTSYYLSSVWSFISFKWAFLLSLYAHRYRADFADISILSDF
UniProt Q6ZP29: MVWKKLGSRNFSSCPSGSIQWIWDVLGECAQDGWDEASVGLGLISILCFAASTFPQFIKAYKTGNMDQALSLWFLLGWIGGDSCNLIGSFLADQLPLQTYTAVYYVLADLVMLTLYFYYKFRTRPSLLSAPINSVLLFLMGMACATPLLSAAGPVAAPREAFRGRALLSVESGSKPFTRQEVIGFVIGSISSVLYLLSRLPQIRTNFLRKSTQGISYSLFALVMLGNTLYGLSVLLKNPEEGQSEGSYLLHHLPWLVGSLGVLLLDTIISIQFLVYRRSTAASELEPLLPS
UniProt O95258: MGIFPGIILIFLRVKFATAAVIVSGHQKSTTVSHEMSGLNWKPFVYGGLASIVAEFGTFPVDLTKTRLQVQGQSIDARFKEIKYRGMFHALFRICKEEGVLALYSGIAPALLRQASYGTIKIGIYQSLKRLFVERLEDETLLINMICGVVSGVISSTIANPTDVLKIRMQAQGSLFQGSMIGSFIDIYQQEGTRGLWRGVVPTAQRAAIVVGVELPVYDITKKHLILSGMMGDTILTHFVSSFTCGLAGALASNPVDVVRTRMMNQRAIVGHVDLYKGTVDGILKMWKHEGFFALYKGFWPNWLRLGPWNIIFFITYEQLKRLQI
UniProt Q96A46: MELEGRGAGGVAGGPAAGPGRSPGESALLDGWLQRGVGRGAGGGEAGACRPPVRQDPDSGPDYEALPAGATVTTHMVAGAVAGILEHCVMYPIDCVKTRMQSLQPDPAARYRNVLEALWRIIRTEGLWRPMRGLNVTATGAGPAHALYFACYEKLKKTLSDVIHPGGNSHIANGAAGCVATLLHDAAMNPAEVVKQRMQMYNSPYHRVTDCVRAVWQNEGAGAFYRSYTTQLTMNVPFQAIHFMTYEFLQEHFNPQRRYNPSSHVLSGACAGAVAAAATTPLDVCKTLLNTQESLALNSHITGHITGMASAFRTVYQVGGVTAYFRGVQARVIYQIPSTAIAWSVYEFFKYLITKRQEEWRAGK
UniProt Q9NY26: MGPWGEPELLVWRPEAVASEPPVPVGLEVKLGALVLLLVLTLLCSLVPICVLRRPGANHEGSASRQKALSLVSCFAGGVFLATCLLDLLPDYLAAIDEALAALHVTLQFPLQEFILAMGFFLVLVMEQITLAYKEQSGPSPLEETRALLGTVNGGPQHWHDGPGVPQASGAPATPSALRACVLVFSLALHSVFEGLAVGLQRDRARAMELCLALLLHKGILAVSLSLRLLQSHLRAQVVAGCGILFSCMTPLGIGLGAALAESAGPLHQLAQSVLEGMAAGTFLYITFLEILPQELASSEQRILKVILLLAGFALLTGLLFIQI

Tests used:
Assay in all cases: log2 fold change, soluble protein after heating vs DMSO (PISA); higher = thermal stabilisation; K562 cells, 10 uM, 30 min; active = over 0.2 and 3.5 SD of the protein, either way, in both replicates (recomputed)
[1] = compound: CC1=C(C=C(C=C1)NC(=O)C2=CC(=CC=C2)C(C)(C)C#N)NC3=CC4=C(C=C3)N=CN(C4=O)C
Outline: (§1)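 K562 cells at 2×10^6 cells/mL were treated for 30 min with 10 μM compound, and aliquots were heated for 3 min over 48°C-58°C before pooling. Extraction used PBS with 0.5% NP-40 at 4°C, and soluble protein was the supernatant after 21,000xg for 90 min, measured by TMTpro 16plex LC-MS/MS with channel sums equalised. Thermal stability values, relative to control samples and from duplicates, are log2 fold changes.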

[2] = compound: CC1=CC=C(C=C1)SC2=C3C=C(SC3=CN=C2)C(=O)N
Outline: as §1

[3] = compound: CC1=NC(=CC=C1)C2=C(N=C(N2)C(C)(C)C)C3=CC4=NC=CN=C4C=C3
Outline: as §1

[4] = compound: CCCCN(Cc1ccc(C(=O)NO)cc1)C(=O)Nc1ccccc1 [Nexturastat A]
Outline: as §1

[5] = compound: CCCS(=O)(=O)Nc1ccc(F)c(C(=O)c2c[nH]c3ncc(-c4ccc(Cl)cc4)cc23)c1F [vemurafenib]
Outline: as §1

[6] = compound: CCCS(=O)(=O)Nc1ccc(F)c(C(=O)c2c[nH]c3ncc(Cl)cc23)c1F
Outline: as §1

[7] = compound: CCCc1cc(C)[nH]c(=O)c1CNC(=O)c1cc(-c2ccnc(N3CCN(C)CC3)c2)cc2c1cnn2C(C)C
Outline: as §1

[8] = compound: CCN(CC)Cc1ccc2cc(COC(=O)Nc3ccc(C(=O)NO)cc3)ccc2c1 [givinostat]
Outline: as §1

[9] = compound: CCN(CCCOc1ccc2c(Nc3cc(CC(=O)Nc4cccc(F)c4)[nH]n3)ncnc2c1)CCOP(=O)(O)O [barasertib]
Outline: as §1

[10] = compound: CC[C@@H]1C(=O)N(C)c2cnc(Nc3ccc(C(=O)NC4CCN(C)CC4)cc3OC)nc2N1C1CCCC1
Outline: as §1

[11] = compound: CC[C@@H]1C(=O)N(C)c2cnc(Nc3ccc(C(=O)N[C@H]4CC[C@H](N5CCN(CC6CC6)CC5)CC4)cc3OC)nc2N1C(C)C [volasertib]
Outline: as §1

[12] = compound: CC[C@H](C)[C@@H](C(=O)N[C@@H]([C@@H](C)O)C(=O)N[C@@H](CC(C)C)C(=O)[C@]1(CO1)C)NC(=O)[C@H]([C@@H](C)CC)N(C)C(=O)C [epoxomicin]
Outline: as §1

[13] = compound: CN(C)CC(=O)Nc1ccc2[nH]c(=O)c3ccccc3c2c1
Outline: as §1

[14] = compound: CN1C2=C(C3=C1C(=O)N(N=C3)CC4=CC(=CC=C4)N)SC(=C2)S(=O)C
Outline: as §1

[15] = compound: CC1=C(C=C(C=C1)NC(=O)C2=CC(=CC=C2)N(C)C)NC(=O)C3=CC=C(C=C3)O
Outline: as §1

[16] = compound: CC[C@H](C)N1C=C(C2=C(C=C(C=C21)C3=CN=C(C=C3)N4CCNCC4)C(=O)NCC5=C(C=C(NC5=O)C)C)C
Outline: as §1

[17] = compound: CCn1cc(-c2ccnc3[nH]c(-c4cccc(CN(C)C)c4)cc23)c(-c2ccc(NC(=O)N(C)C)cc2)n1
Outline: as §1

[18] = compound: CN1CCC(CNc2ccc3ncc(-c4cccc(OC(F)(F)F)c4)n3n2)CC1
Outline: as §1

[19] = compound: CN(CCOC1=CC=C(C=C1)C[C@H]2C(=O)NC(=O)S2)C3=CC=CC=N3 (racemic) [rosiglitazone]
Outline: as §1

[20] = compound: CCn1c(C(=O)N(C2CC2)C2CC2)cc2c3c(ncn3C)c(Nc3cc(C)n(C)n3)nc21
Outline: as §1

| Target | log2 fold change [1] | log2 fold change [2] | log2 fold change [3] | log2 fold change [4] | log2 fold change [5] | log2 fold change [6] | log2 fold change [7] | log2 fold change [8] | log2 fold change [9] | log2 fold change [10] | log2 fold change [11] | log2 fold change [12] | log2 fold change [13] | log2 fold change [14] | log2 fold change [15] | log2 fold change [16] | log2 fold change [17] | log2 fold change [18] | log2 fold change [19] | log2 fold change [20] |
| --- | --- | --- | --- | --- | --- | --- | --- | --- | --- | --- | --- | --- | --- | --- | --- | --- | --- | --- | --- | --- |
| SLC12A5 (UniProt Q9H2X9) | inactive: 0.074 | inactive: 0.108 | inactive: 0.198 | inactive: 0.001 | inactive: -0.105 | inactive: 0.081 | inactive: -0.018 | inactive: 0.016 | inactive: -0.004 | inactive: -0.007 | inactive: -0.033 | inactive: -0.162 | inactive: -0.013 | inactive: 0.316 |  |  |  |  |  |  |
| SLC4A2 (UniProt P04920) | inactive: 0.04 | inactive: 0.039 | inactive: -0.017 | inactive: 0.046 | inactive: 0.002 | inactive: 0.035 | inactive: -0.043 | inactive: 0.037 | inactive: 0.045 | inactive: 0.039 | inactive: -0.071 | inactive: 0.029 | inactive: 0.022 | inactive: 0.035 | inactive: 0.008 | inactive: -0.044 | inactive: -0.028 | inactive: -0.018 |  |  |
| SLC35E2B (UniProt P0CK96) | inactive: 0.021 | inactive: -0.251 | inactive: 0.006 |  | inactive: -0.01 | inactive: -0.007 | inactive: -0.072 |  | inactive: 0.047 |  | inactive: -0.171 |  | inactive: -0.093 |  | inactive: -0.018 |  |  |  | inactive: 0.021 |  |
| SLC30A10 (UniProt Q6XR72) | inactive: 0.028 | inactive: 0.131 | inactive: 0.001 | active: -0.545 | inactive: -0.031 | inactive: -0.073 | inactive: -0.086 | inactive: -0.002 | inactive: -0.025 | inactive: 0 | inactive: -0.052 | inactive: 0.045 | inactive: -0.028 | inactive: -0.087 | inactive: -0.102 | inactive: -0.052 | inactive: -0.244 | inactive: 0.044 |  |  |
| SLC35B3 (UniProt Q9H1N7) | inactive: -0.071 |  | inactive: 0.014 | inactive: 0.166 | inactive: -0.042 |  | inactive: 0.033 | inactive: -0.109 | inactive: -0.005 | inactive: 0.093 |  | inactive: -0.054 | inactive: -0.141 | inactive: 0.01 | inactive: 0.031 | inactive: 0.074 |  |  | inactive: 0.01 | inactive: 0.039 |
| SLC18B1 (UniProt Q6NT16) | inactive: -0.016 | inactive: -0.07 | inactive: -0.111 | inactive: 0.034 | inactive: 0.069 | inactive: 0.005 | inactive: -0.044 | inactive: -0.02 | inactive: 0.084 | inactive: 0.031 | inactive: -0.114 | inactive: 0.022 | inactive: -0.134 | inactive: -0.035 | inactive: -0.194 | inactive: -0.034 | inactive: -0.005 | active: -0.592 |  |  |
| SLC35F6 (UniProt Q8N357) | inactive: -0.041 | inactive: 0.001 |  | inactive: -0.065 | inactive: -0.168 | inactive: -0.055 | inactive: -0.066 | inactive: 0.129 | inactive: 0.045 | inactive: -0.099 | inactive: -0.053 | inactive: 0.021 | inactive: 0.034 | inactive: -0.029 | inactive: -0.166 | inactive: 0.087 |  |  |  |  |
| SLC30A7 (UniProt Q8NEW0) | inactive: -0.03 | inactive: 0.03 | inactive: -0.072 | inactive: -0.108 | inactive: 0.072 | inactive: -0.019 | inactive: -0.148 | inactive: 0.081 | inactive: 0.032 | inactive: 0.016 | inactive: -0.074 | inactive: -0.034 | inactive: 0.014 | inactive: -0.05 | inactive: 0.003 | inactive: -0.041 | inactive: 0.032 | inactive: 0.091 |  |  |
| SLC35F5 (UniProt Q8WV83) | inactive: -0.125 | inactive: 0.089 | inactive: -0.323 | inactive: 0.046 |  | inactive: -0.152 |  |  | inactive: 0.184 |  | inactive: -0.144 | inactive: 0.171 |  |  |  | inactive: 0.27 | inactive: 0.046 | inactive: -0.276 | inactive: -0.222 |  |
| SLC41A1 (UniProt Q8IVJ1) | inactive: 0.123 | inactive: 0.491 | inactive: -0.086 | inactive: 0.098 |  | inactive: 0.294 | inactive: 0.004 |  |  |  | inactive: -0.401 | inactive: 0.35 |  |  | inactive: 0.016 | inactive: 0.056 | inactive: -0.154 | inactive: 0.274 |  |  |
| SLC39A8 (UniProt Q9C0K1) | inactive: 0.024 | inactive: 0.141 |  | inactive: -0.012 | inactive: 0.022 | inactive: -0.041 | inactive: -0.241 | inactive: -0.049 | inactive: 0.039 | inactive: -0.022 | inactive: -0.077 | inactive: 0.079 | inactive: 0.05 | inactive: -0.051 | inactive: 0.114 | inactive: -0.044 | inactive: -0.083 | inactive: 0.006 | inactive: 0.014 | inactive: 0.043 |
| SLC35A3 isoform 2 (UniProt Q9Y2D2) | inactive: 0.016 | inactive: -0.039 | inactive: 0 | inactive: -0.056 |  | inactive: -0.003 | inactive: 0.216 | inactive: 0.015 | inactive: -0.052 | inactive: 0.095 | inactive: -0.058 | inactive: -0.368 |  |  | inactive: 0.075 | inactive: -0.305 | inactive: 0.002 | inactive: -0.047 | inactive: 0.009 | inactive: -0.074 |
| SLC39A11 (UniProt Q8N1S5) | inactive: 0.046 | inactive: -0.057 | inactive: 0.045 |  | inactive: 0.055 | inactive: -0.026 | inactive: -0.009 | inactive: 0.074 | inactive: -0.002 | inactive: 0.102 | inactive: 0.071 |  | inactive: -0.062 | inactive: -0.021 | inactive: 0.372 | inactive: 0.007 | inactive: -0.136 | inactive: 0.15 |  |  |
| SLC38A7 (UniProt Q9NVC3) | inactive: 0.092 | inactive: 0 | inactive: 0.094 | inactive: -0.04 | inactive: 0.042 | inactive: 0.012 | inactive: -0.002 | inactive: 0.008 | inactive: -0.012 | inactive: -0.283 | inactive: -0.054 | inactive: 0.078 | inactive: -0.123 |  | inactive: 0.009 | inactive: -0.023 | inactive: 0.109 | inactive: -0.589 |  |  |
| SLC48A1 (UniProt Q6P1K1) | inactive: -0.021 |  | inactive: -0.034 |  |  |  |  | inactive: 0.1 | inactive: 0.039 | inactive: 0 |  |  |  |  | inactive: 0.167 | inactive: -0.174 |  |  | inactive: 0.021 | inactive: 0.1 |
| SLC66A1 (UniProt Q6ZP29) |  |  |  |  |  |  | inactive: -0.506 | inactive: -0.018 | inactive: 0.005 | inactive: -0.271 |  |  |  |  |  | inactive: 0.069 |  |  | inactive: 0.204 | inactive: 0.181 |
| SLC25A14 isoform 3 (UniProt O95258) |  | inactive: -0.016 | inactive: -0.045 |  | inactive: -0.05 | inactive: 0.028 | inactive: -0.116 | inactive: 0.02 | inactive: 0 | inactive: 0.125 | inactive: 0.103 |  | inactive: 0.027 | inactive: -0.036 | inactive: 0.003 | inactive: 0.036 | inactive: -0.094 | inactive: 0.065 | inactive: -0.033 | inactive: 0.028 |
| SLC25A28 (UniProt Q96A46) | inactive: -0.019 | inactive: -0.17 |  |  |  | inactive: 0.009 |  |  | inactive: -0.065 |  | inactive: -0.377 |  |  |  |  | inactive: -0.189 |  |  | inactive: 0.091 |  |
| SLC22A23 (UniProt A1A5C7) |  | inactive: 0.075 | inactive: -0.007 |  |  | inactive: 0.086 | inactive: 0.009 | inactive: -0.061 |  | inactive: 0.04 | inactive: 0.229 |  |  | inactive: 0.02 | inactive: -0.184 |  | inactive: -0.028 | inactive: 0.094 |  | inactive: -0.023 |
| SLC39A1 (UniProt Q9NY26) |  |  |  |  |  |  |  | inactive: -0.157 |  |  |  |  |  |  |  |  | inactive: -0.014 | inactive: -0.051 |  |  |

Nothing new here: an excerpt of the list.

| Target | log2 fold change [1] | log2 fold change [2] | log2 fold change [3] | log2 fold change [4] | log2 fold change [5] | log2 fold change [6] | log2 fold change [7] | log2 fold change [8] | log2 fold change [9] | log2 fold change [10] | log2 fold change [11] | log2 fold change [12] | log2 fold change [13] | log2 fold change [14] | log2 fold change [15] | log2 fold change [16] | log2 fold change [17] | log2 fold change [18] | log2 fold change [19] | log2 fold change [20] |
| --- | --- | --- | --- | --- | --- | --- | --- | --- | --- | --- | --- | --- | --- | --- | --- | --- | --- | --- | --- | --- |
| SLC41A1 (UniProt Q8IVJ1) | inactive: 0.123 | inactive: 0.491 | inactive: -0.086 | inactive: 0.098 |  | inactive: 0.294 | inactive: 0.004 |  |  |  | inactive: -0.401 | inactive: 0.35 |  |  | inactive: 0.016 | inactive: 0.056 | inactive: -0.154 | inactive: 0.274 |  |  |
| SLC39A8 (UniProt Q9C0K1) | inactive: 0.024 | inactive: 0.141 |  | inactive: -0.012 | inactive: 0.022 | inactive: -0.041 | inactive: -0.241 | inactive: -0.049 | inactive: 0.039 | inactive: -0.022 | inactive: -0.077 | inactive: 0.079 | inactive: 0.05 | inactive: -0.051 | inactive: 0.114 | inactive: -0.044 | inactive: -0.083 | inactive: 0.006 | inactive: 0.014 | inactive: 0.043 |
| SLC35A3 isoform 2 (UniProt Q9Y2D2) | inactive: 0.016 | inactive: -0.039 | inactive: 0 | inactive: -0.056 |  | inactive: -0.003 | inactive: 0.216 | inactive: 0.015 | inactive: -0.052 | inactive: 0.095 | inactive: -0.058 | inactive: -0.368 |  |  | inactive: 0.075 | inactive: -0.305 | inactive: 0.002 | inactive: -0.047 | inactive: 0.009 | inactive: -0.074 |
| SLC39A11 (UniProt Q8N1S5) | inactive: 0.046 | inactive: -0.057 | inactive: 0.045 |  | inactive: 0.055 | inactive: -0.026 | inactive: -0.009 | inactive: 0.074 | inactive: -0.002 | inactive: 0.102 | inactive: 0.071 |  | inactive: -0.062 | inactive: -0.021 | inactive: 0.372 | inactive: 0.007 | inactive: -0.136 | inactive: 0.15 |  |  |
